US20070010658A1 (published 2007)
Changes are numbered by the printed parent chain. These are yes or no findings as the source states them, for the method shown. Some results given as binding are weak or reduced against the parent protein; the word gives no strength. Each block holds one binder with its values, some of them ahead of it.

Sequences of proteins named here, by UniProt entry; tags and fusion partners are left off. Residues count along the entry.
UniProt P01375, residues 77-233: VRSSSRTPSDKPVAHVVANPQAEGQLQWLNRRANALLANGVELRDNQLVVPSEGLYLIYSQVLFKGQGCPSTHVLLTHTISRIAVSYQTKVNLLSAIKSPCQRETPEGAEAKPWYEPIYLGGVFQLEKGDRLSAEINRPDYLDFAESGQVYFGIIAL

Molecular target: T1, TNF alpha (UniProt P01375 77-233, limits assumed)
T1 construct: also called tumour necrosis factor; TNFSF2
Experiment: phage ELISA on coated TNF

binding: binds
B1: TN3-2-B (monomeric) (designed binder)
chain: ALQTVCLKGTKVHMKCFLAFTQTKTFHEASEDCISRGGTLSTPQTGSENDALYEYLRQSVGNEAEIWLGLNKVRSRYFWMDMTGTRIAYKNWETEITAQPDPTNNENCAVLSGAANGKWFGKRCRDQLPYICQFGIV
notes: Purified monomer from the E. coli periplasm (pBAD) for SPR

binding: binds
B2: TN3-2-C (monomeric) (designed binder)
chain: B1 chain with M80V, N105R, G121D
notes: as for B1

binding: binds
B3: TN3-2-D (monomeric) (designed binder)
chain: B1 chain with M80I, T103N, N105R
notes: as for B1
